According to article PMC10336005, “Architectural basis for cylindrical self-assembly governing Plk4-mediated centriole duplication in human cells” (Communications Biology, 2023):
Results are given in words; binding and its absence hold for the method and conditions named. For some of these results: In cells and extracts the contact can be indirect. Some results given as binding are weak or reduced against the parent protein; the word gives no strength. For some of these results: Tags and fused reporters may be left off the sequences shown.

The chains behind the UniProt entries cited, without tags or fusion partners. Where a name states a change or a piece, a line headed by the entry shows the natural chain unless it says otherwise. A line that says so, or that is headed by a name, gives the form on record, which may keep a tag or linker.
mGFP-Cep152 (I1279D, L1286D) (O94986, form named): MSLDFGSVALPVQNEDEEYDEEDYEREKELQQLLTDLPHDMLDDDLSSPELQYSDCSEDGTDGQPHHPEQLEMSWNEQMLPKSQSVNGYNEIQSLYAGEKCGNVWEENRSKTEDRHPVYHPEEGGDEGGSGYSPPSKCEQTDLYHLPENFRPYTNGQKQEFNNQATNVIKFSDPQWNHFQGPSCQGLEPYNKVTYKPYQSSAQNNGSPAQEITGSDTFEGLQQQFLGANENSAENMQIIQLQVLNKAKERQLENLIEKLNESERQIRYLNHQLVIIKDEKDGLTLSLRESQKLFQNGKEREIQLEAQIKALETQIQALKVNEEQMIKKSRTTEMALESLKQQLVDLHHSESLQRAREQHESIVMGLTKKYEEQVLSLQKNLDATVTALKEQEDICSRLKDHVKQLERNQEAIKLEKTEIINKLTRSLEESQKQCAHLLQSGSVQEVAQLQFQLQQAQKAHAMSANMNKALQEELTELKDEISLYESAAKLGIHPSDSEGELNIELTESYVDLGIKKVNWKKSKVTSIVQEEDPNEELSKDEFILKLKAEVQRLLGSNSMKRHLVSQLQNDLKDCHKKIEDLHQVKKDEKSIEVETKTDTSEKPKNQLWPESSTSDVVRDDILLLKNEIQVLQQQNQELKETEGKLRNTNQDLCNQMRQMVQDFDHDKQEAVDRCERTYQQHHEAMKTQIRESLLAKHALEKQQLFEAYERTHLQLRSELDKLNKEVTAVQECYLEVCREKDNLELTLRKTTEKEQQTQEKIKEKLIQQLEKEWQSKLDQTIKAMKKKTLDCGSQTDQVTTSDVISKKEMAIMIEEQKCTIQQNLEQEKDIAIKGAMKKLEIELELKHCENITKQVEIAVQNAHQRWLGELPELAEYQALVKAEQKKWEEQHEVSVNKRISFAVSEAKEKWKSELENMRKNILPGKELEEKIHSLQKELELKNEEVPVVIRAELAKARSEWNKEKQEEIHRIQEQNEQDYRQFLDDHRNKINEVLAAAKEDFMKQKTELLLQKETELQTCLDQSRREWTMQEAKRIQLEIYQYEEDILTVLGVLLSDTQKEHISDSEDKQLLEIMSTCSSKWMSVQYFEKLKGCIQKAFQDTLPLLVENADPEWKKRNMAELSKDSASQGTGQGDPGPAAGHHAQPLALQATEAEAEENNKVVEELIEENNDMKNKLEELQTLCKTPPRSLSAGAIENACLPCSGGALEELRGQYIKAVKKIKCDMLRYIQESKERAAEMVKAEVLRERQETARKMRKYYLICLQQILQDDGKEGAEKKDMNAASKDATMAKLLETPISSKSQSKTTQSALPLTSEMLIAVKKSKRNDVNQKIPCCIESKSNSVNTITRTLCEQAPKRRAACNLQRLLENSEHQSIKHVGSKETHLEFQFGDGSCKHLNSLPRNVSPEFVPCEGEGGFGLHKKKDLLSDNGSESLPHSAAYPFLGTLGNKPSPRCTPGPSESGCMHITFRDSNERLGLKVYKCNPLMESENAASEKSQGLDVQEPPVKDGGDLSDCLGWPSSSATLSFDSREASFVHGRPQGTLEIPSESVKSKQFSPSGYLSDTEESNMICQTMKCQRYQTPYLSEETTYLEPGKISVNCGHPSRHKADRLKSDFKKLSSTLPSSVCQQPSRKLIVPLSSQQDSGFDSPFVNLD
mGFP-Cep152 WT (O94986, form named): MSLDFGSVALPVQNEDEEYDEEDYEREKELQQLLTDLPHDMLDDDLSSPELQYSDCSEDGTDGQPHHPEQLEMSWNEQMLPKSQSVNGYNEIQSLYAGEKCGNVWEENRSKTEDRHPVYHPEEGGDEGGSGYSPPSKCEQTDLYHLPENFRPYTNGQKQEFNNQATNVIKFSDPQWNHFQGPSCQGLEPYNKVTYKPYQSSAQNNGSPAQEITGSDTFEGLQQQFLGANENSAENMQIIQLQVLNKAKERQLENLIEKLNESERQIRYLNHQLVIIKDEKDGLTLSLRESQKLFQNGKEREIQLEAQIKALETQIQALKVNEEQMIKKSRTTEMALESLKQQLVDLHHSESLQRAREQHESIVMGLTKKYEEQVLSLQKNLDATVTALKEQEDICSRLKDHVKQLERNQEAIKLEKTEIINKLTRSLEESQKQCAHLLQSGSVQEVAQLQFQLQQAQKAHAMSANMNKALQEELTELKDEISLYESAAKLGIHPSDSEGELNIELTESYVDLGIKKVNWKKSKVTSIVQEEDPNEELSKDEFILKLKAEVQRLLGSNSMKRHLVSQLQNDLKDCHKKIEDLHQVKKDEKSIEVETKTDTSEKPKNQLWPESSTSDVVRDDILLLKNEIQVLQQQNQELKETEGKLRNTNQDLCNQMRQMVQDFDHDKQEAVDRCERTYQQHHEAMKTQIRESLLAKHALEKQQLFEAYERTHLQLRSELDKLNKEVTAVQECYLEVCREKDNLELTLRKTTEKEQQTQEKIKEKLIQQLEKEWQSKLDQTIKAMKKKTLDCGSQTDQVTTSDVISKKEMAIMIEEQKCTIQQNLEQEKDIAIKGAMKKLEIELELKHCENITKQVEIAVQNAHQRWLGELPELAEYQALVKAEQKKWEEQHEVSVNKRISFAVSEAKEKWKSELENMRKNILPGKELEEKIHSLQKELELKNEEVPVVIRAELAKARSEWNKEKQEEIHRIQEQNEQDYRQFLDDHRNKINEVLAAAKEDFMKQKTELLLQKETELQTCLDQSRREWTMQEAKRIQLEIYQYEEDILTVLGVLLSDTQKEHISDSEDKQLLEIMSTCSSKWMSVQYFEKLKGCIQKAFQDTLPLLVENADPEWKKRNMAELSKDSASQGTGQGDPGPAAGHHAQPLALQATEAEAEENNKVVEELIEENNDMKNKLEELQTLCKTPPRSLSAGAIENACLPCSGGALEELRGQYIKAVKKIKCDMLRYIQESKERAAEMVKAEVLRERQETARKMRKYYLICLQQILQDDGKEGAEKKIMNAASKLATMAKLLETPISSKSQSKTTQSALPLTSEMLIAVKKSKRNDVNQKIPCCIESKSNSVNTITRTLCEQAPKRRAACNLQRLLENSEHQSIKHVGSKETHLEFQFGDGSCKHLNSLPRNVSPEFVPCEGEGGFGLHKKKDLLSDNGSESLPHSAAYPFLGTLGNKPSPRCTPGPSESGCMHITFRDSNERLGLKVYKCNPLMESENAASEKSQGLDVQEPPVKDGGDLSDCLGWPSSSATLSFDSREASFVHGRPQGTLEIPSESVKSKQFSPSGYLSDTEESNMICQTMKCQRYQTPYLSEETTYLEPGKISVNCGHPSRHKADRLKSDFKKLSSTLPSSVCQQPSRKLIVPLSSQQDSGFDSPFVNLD
mGFP-Cep152∆(1273–1295) (O94986, form named): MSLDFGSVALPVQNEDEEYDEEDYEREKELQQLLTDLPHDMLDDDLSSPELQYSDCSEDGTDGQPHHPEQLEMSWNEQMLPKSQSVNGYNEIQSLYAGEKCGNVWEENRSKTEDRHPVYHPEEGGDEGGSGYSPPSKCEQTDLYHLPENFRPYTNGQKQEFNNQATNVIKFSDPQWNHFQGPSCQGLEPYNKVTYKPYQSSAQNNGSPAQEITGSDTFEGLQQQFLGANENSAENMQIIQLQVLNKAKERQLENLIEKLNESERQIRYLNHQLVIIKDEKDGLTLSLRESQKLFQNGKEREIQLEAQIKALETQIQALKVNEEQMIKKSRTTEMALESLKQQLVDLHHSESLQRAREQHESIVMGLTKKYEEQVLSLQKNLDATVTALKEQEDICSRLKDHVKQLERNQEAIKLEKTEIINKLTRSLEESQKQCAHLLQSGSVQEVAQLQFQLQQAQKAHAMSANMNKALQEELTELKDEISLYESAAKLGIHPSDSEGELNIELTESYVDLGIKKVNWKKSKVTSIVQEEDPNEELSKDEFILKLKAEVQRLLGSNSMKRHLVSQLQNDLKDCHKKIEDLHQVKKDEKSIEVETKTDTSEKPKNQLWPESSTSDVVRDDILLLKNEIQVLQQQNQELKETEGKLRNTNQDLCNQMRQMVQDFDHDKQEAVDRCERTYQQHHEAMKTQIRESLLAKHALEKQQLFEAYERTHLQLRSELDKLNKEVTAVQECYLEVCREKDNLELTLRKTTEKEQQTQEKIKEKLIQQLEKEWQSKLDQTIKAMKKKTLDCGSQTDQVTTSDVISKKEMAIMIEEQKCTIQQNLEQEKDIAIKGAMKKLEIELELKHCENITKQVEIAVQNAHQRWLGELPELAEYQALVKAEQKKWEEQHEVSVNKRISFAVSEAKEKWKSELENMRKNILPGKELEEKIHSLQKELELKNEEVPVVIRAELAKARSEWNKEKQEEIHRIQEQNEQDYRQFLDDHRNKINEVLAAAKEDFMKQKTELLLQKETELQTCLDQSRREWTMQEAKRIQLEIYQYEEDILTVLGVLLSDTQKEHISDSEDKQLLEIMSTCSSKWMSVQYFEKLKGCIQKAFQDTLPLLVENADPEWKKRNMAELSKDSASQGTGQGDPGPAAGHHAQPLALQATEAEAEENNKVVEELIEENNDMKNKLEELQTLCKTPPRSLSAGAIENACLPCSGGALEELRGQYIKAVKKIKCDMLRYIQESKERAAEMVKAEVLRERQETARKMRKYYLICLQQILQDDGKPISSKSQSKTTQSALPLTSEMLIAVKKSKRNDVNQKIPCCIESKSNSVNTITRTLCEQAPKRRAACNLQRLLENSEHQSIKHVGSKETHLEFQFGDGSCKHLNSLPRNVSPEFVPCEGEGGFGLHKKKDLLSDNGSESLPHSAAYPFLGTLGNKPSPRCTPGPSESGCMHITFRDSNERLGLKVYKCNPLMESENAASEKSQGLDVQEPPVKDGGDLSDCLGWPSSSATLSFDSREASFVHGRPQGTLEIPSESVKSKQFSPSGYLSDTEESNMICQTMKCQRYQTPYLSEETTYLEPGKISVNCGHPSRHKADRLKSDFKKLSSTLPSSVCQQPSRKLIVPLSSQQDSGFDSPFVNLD

Tests used:
[1] = target: Cep63 (440–490) (L469A, N473R, V480K) (human) (UniProt Q96MT8); test: SEC; SEC elution of Cep63 (440–490) triple mutants (Supplementary Fig. 3d); both purified
[2] = target: mGFP-Cep152 (I1279D, L1286D) (human) (UniProt O94986); test: co-IP; lysates of transfected cells in TBSN buffer (20 mM Tris-HCl pH 8.0, 100 mM NaCl, 0.5% Nonidet P-40, 5 mM EGTA, 1.5 mM EDTA); anti-GFP antibody and protein A-agarose; immunoblot
[3] = target: mGFP-Cep152 WT (human) (UniProt O94986); test: as above
[4] = target: mGFP-Cep152∆(1273–1295) (human) (UniProt O94986); test: as above

binding [1] | binding [2] | binding [3] | binding [4] | Binder
no binding |  |  |  | Cep63 (440–490) (L469A, N473R, V480K) (domain or fragment, UniProt Q96MT8 440-490) DMEKRLRAEMQKAEDKAVEHKEILDQLESAKLERRHLSEMKMKLELGLHEA
 | binds | binds | binds | FLAG-Plk4 (enzyme, UniProt O00444 1-970) MATCIGEKIEDFKVGNLLGKGSFAGVYRAESIHTGLEVAIKMIDKKAMYKAGMVQRVQNEVKIHCQLKHPSILELYNYFEDSNYVYLVLEMCHNGEMNRYLKNRVKPFSENEARHFMHQIITGMLYLHSHGILHRDLTLSNLLLTRNMNIKIADFGLATQLKMPHEKHYTLCGTPNYISPEIATRSAHGLESDVWSLGCMFYTLLIGRPPFDTDTVKNTLNKVVLADYEMPSFLSIEAKDLIHQLLRRNPADRLSLSSVLDHPFMSRNSSTKSKDLGTVEDSIDSGHATISTAITASSSTSISGSLFDKRRLLIGQPLPNKMTVFPKNKSSTDFSSSGDGNSFYTQWGNQETSNSGRGRVIQDAEERPHSRYLRRAYSSDRSGTSNSQSQAKTYTMERCHSAEMLSVSKRSGGGENEERYSPTDNNANIFNFFKEKTSSSSGSFERPDNNQALSNHLCPGKTPFPFADPTPQTETVQQWFGNLQINAHLRKTTEYDSISPNRDFQGHPDLQKDTSKNAWTDTKVKKNSDASDNAHSVKQQNTMKYMTALHSKPEIIQQECVFGSDPLSEQSKTRGMEPPWGYQNRTLRSITSPLVAHRLKPIRQKTKKAVVSILDSEEVCVELVKEYASQEYVKEVLQISSDGNTITIYYPNGGRGFPLADRPPSPTDNISRYSFDNLPEKYWRKYQYASRFVQLVRSKSPKITYFTRYAKCILMENSPGADFEVWFYDGVKIHKTEDFIQVIEKTGKSYTLKSESEVNSLKEEIKMYMDHANEGHRICLALESIISEEERKTRSAPFFPIIIGRKPGSTSSPKALSPPPSVDSNYPTRERASFNRMVMHSAASPTQAPILNPSMVTNEGLGLTTTASGTDISSNSLKDCLPKSAQLLKSVFVKNVGWATQLTSGAVWVQFNDGSQLVVQAGVSSISYTSPNGQTTRYGENEKLPDYIKQKLQCLSSILLMFSNPTPNFH
